Measured values as given in article PMC12192291, “Ancestral [Fe-S] biogenesis system SMS has a unique mechanism of cluster assembly and sulfur utilization” (PLOS Biology, 2025).
Positions count from the first letter of the chain named. Numbers in names are those of the source. No constants are given. Whether binding was seen depends on the method and setting. Some entries that bind do so weakly or less than the wild type. Values belong to the binder of their own block, whether it stands above or below them.

What was measured:
[1] = target: SmsC from Methanocaldococcus jannaschii (Methanocaldococcus jannaschii); test: crystal structure; SmsC2B2: orthorhombic crystals grown under oxic conditions and soaked with AMP-PNP (9H7Y); monoclinic crystals grown under anoxic conditions, sulfate bound (9HBL); both purified
[2] = target: SmsC from Methanocaldococcus jannaschii (Methanocaldococcus jannaschii); test: SEC; calibrated Hiload 600 Superdex 200, 50 mM Tris-HCl pH 7.8, 100 mM NaCl, 1 mM DTT; no nucleotide; for the complex SmsB2 and SmsC were mixed in molar amounts corresponding to SmsC2B2 and incubated overnight; both purified
[3] = target: SmsC K45R variant (Walker A motif) from Methanocaldococcus jannaschii (Methanocaldococcus jannaschii); test: SEC; SmsC proteins incubated with 10 mM AMP-PCP and then purified by SEC; both purified
[4] = target: T1, SmsC C239A/C242A variant from Methanocaldococcus jannaschii, co-expressed with SmsB (Methanocaldococcus jannaschii); test: co-purification; SmsC_(C239A/C242A) and SmsB co-expressed in E. coli from pVP367 (6His-Tev in front of smsC) and purified as a complex; the steps are not told for this variant
T1 sequence: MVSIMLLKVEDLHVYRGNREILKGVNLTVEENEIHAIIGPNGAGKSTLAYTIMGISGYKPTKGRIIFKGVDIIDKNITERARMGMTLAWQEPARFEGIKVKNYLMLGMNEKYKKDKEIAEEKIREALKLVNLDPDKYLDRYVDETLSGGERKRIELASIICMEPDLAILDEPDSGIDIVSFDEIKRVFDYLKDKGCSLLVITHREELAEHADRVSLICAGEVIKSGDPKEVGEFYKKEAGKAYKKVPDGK

binding [1]: binds weakly
binding [2]: no binding (condition: without AMP-PCP)
B1: SmsC from Methanocaldococcus jannaschii (enzyme)
chain: T1 sequence with A239C, A242C
notes: SmsC, Methanocaldococcus jannaschii, ABC ATPase subunit of the SMS system; Monomer in solution without nucleotide; two copies in SmsC2B2; In the cryo-EM sample one of the two copies carries a [4Fe-4S] cluster; also called apo-SmsC; source: E. coli MG1655(DE3) (FBE682), purified (HisTrap, TEV protease, Ni-NTA, SEC); not shown: His6, N-terminal, cleaved

binding [3]: no binding
B2: SmsC K45R variant (Walker A motif) from Methanocaldococcus jannaschii (enzyme)
chain: T1 sequence with K45R, A239C, A242C

binding [4]: binds
B3: SmsB from Methanocaldococcus jannaschii (natural protein)
chain: MSIKEELMEIIEAIKYTSEKPEEIVHGKGPRIIVKESRIIDVQGDEGIILEGKEEDGKIKAKIIVKKGYKFKYPIHMCFGITEENISQIIDVEIILEEDSSISLMSHCSFPKGKGIKHIMNGIIKIGKNAKFSYNEFHYHGMDGDILVKPTVKVEIDEGGIYISNFTLTKGRIGTLDIEQEIIAKKDAIIDITTRTYAIKEDVVKVNEVVKLNGENAKCIIKSRGAAMDNSKISLKLKIEGNAPYSKGHIDCAEIVKGNAEVESIPIVVVRDDKARITHEAAIGSVDKKQLETLMAKGLDEDEATEIIVKGMIGDL
notes: SmsB, Methanocaldococcus jannaschii, subunit of the SMS system; Mainly a homodimer in solution; two copies in SmsC2B2; also called SmsB2; source: E. coli MG1655(DE3) (FBE682), purified (HisTrap, TEV protease, Ni-NTA, SEC); not shown: His6, N-terminal, cleaved
